Some results were stated once for a whole list of compounds, not compound by compound.
System: broad panel of human pathogens
Assay: MIC against the panel of pathogens
Assay type: cell-based
Experimental: Luria-Bertani (LB) media (10 g/L tryptone, 10 g/L NaCl, 5 g/L yeast extract, pH 7.0) was used to grow all bacterial strains, except Streptococcus pyogenes. Streptococcus pyogenes was grown in Mueller-Hinton broth containing 5% (v/v) sheep blood. All bacterial cultures were grown at 37° C. All the E. coli strains were grown while shaking at 200 rpm, while clinical pathogens were incubated without shaking.
The MIC of all the strains was determined in LB media except Streptococcus pyogenes, which was grown in Mueller-Hinton media containing 5% (v/v) sheep blood. The micro-dilution method was utilized in 96-well clear flat-bottom plates (100 μL/well) according to the CLSI guidelines. All strains were grown at 37° C. for 16-18 hours in presence of various concentrations of compound. The MIC was determined by a visual inspection and experiments were performed in triplicate.

Question: How did the effectiveness as antibiotics turn out when `COc1ccc2[nH]cc(CCN)c2c1` [Compound 3] was run?
Answer: The effectiveness as antibiotics was “largely ineffective as antibiotics”.

Question: Which effectiveness as antibiotics does the source give for `Cc1[nH]c2ccc(O)cc2c1CCN` [Compound 5] here?
Answer: The effectiveness as antibiotics was “largely ineffective as antibiotics”.

Question: `NCCc1c[nH]c2ccccc12` [Compound 4] was tested. Which effectiveness as antibiotics did it give?
Answer: The effectiveness as antibiotics was “largely ineffective as antibiotics”.

Question: For `COc1ccc2c(CCN)c[nH]c2c1` [Compound 6], which effectiveness as antibiotics is on record?
Answer: Its effectiveness as antibiotics is “largely ineffective as antibiotics”.

Question: For `NCCc1c[nH]c2ccc(O)cc12` [Compound 2], which effectiveness as antibiotics is on record?
Answer: The effectiveness as antibiotics was “largely ineffective as antibiotics”.
